These results are taken from patent US20150197562A1 (FRAUNHOFER GESELLSCHAFT ZUR FOERDERUNG DER ANGEWANDTEN …, published 2015).

No constants are given. Whether binding was seen depends on the method and setting.

In assay [1] the target is MSP4 (EGF domain). The assay can be described thus: dot blot.
Assay [2] deals with MSP4 (EGF domain). The assay can be described thus: dot blot on nitrocellulose, goat anti-human AP, NBT/BCIP.

B1: recombinant huMAb-anti-MSP10.1 (antibody, V domains shown)
VH: EVQLVESGGDLVKPGGSLRLSCVVSGFRISTSAMSWVRQVPGKGLEWVSDISESGGSKDYADSVRGRFTISRDTSKNTLYLQMNSLGADDTALYYCAKSVGYFDTSGYYRWDYFDSWGQGTLVTVSS
VL: EIVLTQSPDILSLSPGERATLSCRASQALTAKYLAWYQQKPGQVPRLLIYGSSTRATGIPDRFRGSGSGTDFTLTISRLEPADSAVYYCQQYEDSPWTFGQGTKLEIK
notes: also called recombinant human anti MSP-10 antibody huMAb-anti-MSP10.1
As to B1, the binding entry with MSP4 (EGF domain) [1] is “no binding”; with MSP4 (EGF domain) [2], “no binding (tested: 100 ng antigen per dot)”.

B2: recombinant huMAb-anti-MSP10.2 (antibody, V domains shown)
VH: B1 VH
VL: EIVLTQSPDTLSLSPGETATLSCRASQTVRRNSLAWYQQKPGQAPRLLIYGASDRATGIPDRFSGSGFGTDFTLTVSGLEPEDFAVYYCQQYGTSPRTFGQGTKLEIK
notes: Same heavy chain as huMAb-anti-MSP10.1 with a different kappa light chain; Cloned and expressed like huMAb-anti-MSP10.1 (IgG1m17,1, kappa; N. benthamiana)
As for B2, the binding result in the assay with MSP4 (EGF domain) [1] was “no binding”; with MSP4 (EGF domain) [2] it was “no binding (tested: 100 ng antigen per dot)”.
